The text below walks through data of article PMC5736175, “Nicotinic alpha 7 receptor agonists EVP-6124 and BMS-933043, attenuate scopolamine-induced deficits in visuo-spatial paired associates learning” (PLoS ONE, 2017).

A short description of data set [1]: Plasma pharmacokinetics in satellite animals (LC-MS/MS), 60 min after i.m. dose. The conditions noted are these: for concentration at 60 min: cynomolgus monkey, in vivo, nM total compound in plasma from satellite animals. Here is the method:
For all compounds, plasma pharmacokinetic studies were conducted in a separate cohort of cynomolgus monkeys (N = 2–3 subjects per dose) before beginning vsPAL testing to help guide dose selection. Blood samples were obtained with the animals awake and sitting in a primate chair.
Plasma concentrations of test compounds were determined using LC-MS/MS assays. In brief, 50 μL plasma and sample containing compounds was extracted by protein precipitation method with 150 μL acetonitrile containing an internal standard. A 5 μL sample of supernatant was injected into the LC-MS/MS system. Analytes were separated by reversed phase chromatography and detection of each analyte was achieved through selected reaction monitoring mode of mass spectrometry. Samples were quantified by calculated peak area ratio of analyte and internal standard against a calibration curve.

Data set [2] concerns scopolamine-treated cynomolgus monkeys. Kind of data set: Scopolamine-induced impairment of vsPAL task performance, treatment + scopolamine. The class given is in vivo, cynomolgus monkeys (Macaca Fasicularis). The method, then:
Doses cited refer to the free base form of the compounds. […] All drugs were administered intramuscularly (i.m.) in a dosing volume of 0.1–0.2 ml/kg.
On days when compound testing occurred, approximately half the cohort received one dose and the remainder another dose of the same compound and therefore dose order was staggered between animals. With the exception of EVP-6124, all other compounds were tested in a single dose response study.
Cohen’s d values of >0.2, >0.5 and >0.8 are described using the conventions of small, medium, and large effects, respectively.

Values joined by “and” are separate entries in the source; they are usually repeats but may differ in a detail not shown here. Equal entries are not always repeated. Structures can show the parent of a compound that is named as a salt.

Take `COc1cc2c(cc1OC)C(=O)C(CC1CCN(Cc3ccccc3)CC1)C2` (stereo not shown) [Donepezil, Donepezil hydrochloride]: the “nM total compound in plasma from satellite animals, 60 min” value in data set [1] (0.03 mg/kg i.m., individual subjects) is 12.0 nM and 3.7 nM and 6.5 nM; in data set [1] (0.10 mg/kg i.m., individual subjects), 21.7 nM; in data set [1] (0.30 mg/kg i.m., individual subjects), 104.7 nM. Besides, the concentration at 60 min in data set [1] (0.03 mg/kg, 0.03 mg/kg i.m., mean) was 7.4 nM; in data set [1] (0.1 mg/kg, 0.10 mg/kg i.m., individual subjects), 16.6 nM; in data set [1] (0.1 mg/kg, 0.10 mg/kg i.m., mean), 19.2 nM; in data set [1] (0.3 mg/kg, 0.30 mg/kg i.m., individual subjects) it was 75.9 nM; in data set [1] (0.3 mg/kg, 0.30 mg/kg i.m., mean) it was 90.3 nM. Further, the “Average Response Latency” value in data set [2] (Donepezil 0.03 mg/kg + Scopolamine, individual animals) turned out to be 2165.8 ms. Besides, the “% Completion” value in data set [2] (Donepezil 0.3 mg/kg + Scopolamine, group MEAN of 6 animals) is given as 77.8%.
